Results as given in paper PMC10338684.
Results are given in words; binding and its absence hold for the method and conditions named. Binding seen in cells or lysates may run through a third protein. A yes stands for co-enrichment or nearness to the bait. Other partners may have been found. For some assays here: No binding means not detected with the bait. For some assays here: Sequences can lack the tags named with a protein. Values belong to the molecule of their own block, whether it stands above or below them.

The chains behind the UniProt entries cited, without tags or fusion partners.
UniProt Q9M658: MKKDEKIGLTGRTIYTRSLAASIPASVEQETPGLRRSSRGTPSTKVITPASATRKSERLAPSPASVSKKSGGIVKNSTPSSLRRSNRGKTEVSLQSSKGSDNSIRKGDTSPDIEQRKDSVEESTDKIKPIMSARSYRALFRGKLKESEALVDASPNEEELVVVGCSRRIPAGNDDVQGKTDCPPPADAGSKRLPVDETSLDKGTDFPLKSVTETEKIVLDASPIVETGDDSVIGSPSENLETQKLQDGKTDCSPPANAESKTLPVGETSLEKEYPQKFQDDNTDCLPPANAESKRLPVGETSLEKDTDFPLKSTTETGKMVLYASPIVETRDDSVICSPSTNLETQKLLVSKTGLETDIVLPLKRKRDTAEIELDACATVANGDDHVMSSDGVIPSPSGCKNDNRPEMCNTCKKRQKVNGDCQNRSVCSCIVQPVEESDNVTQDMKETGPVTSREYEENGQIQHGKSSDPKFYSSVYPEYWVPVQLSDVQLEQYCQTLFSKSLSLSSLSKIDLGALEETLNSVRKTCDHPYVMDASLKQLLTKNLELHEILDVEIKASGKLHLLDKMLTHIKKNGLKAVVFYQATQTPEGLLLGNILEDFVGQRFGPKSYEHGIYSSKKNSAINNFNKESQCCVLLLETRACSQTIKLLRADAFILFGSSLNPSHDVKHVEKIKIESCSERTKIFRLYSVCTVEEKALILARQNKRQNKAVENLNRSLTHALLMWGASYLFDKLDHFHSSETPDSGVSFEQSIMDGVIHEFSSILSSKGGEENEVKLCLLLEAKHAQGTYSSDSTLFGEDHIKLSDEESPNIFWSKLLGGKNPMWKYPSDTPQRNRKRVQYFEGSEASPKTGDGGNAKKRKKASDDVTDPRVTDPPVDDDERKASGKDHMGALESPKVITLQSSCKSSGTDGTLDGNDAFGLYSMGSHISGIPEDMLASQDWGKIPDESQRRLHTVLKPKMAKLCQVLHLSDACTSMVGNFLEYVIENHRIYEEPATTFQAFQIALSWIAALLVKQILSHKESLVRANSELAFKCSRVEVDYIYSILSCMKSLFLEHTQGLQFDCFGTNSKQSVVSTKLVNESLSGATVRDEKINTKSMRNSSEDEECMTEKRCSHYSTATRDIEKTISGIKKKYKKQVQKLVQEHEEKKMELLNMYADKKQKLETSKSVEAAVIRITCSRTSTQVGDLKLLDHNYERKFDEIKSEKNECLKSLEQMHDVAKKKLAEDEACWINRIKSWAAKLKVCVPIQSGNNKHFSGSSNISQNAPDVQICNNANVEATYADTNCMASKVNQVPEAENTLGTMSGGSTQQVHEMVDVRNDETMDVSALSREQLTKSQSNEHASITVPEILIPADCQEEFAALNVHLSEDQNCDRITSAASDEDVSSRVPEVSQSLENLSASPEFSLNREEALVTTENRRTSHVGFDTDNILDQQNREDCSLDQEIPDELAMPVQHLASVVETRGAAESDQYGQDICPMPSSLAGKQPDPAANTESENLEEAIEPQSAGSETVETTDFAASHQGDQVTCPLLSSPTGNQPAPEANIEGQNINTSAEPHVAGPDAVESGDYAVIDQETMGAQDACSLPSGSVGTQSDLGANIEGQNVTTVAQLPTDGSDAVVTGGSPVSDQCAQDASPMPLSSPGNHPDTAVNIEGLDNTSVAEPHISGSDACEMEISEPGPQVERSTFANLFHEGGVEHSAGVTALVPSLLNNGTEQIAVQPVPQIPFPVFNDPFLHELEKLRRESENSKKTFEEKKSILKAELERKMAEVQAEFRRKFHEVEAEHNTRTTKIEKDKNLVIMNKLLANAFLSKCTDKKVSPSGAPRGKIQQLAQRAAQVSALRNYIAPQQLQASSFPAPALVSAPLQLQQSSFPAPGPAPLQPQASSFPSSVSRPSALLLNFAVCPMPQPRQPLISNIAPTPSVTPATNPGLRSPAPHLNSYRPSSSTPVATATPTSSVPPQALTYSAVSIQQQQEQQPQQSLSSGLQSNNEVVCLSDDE

Legend:
Test in all cases: affinity purification with mass spectrometry; native IP-MS from unopened flower buds of FLAG-tagged transgenic plants, Col-0 as control; IP buffer 50 mM Tris-HCl pH 8.0, 150 mM NaCl, 5 mM EDTA, 10% glycerol, 0.1% Tergitol; anti-FLAG M2 magnetic beads, 4 °C, 2 h; eluted with 3xFLAG peptides
[1] = molecular target: T1, PIAL2-FLAG (Arabidopsis thaliana) (UniProt F4JYG0)
T1 sequence: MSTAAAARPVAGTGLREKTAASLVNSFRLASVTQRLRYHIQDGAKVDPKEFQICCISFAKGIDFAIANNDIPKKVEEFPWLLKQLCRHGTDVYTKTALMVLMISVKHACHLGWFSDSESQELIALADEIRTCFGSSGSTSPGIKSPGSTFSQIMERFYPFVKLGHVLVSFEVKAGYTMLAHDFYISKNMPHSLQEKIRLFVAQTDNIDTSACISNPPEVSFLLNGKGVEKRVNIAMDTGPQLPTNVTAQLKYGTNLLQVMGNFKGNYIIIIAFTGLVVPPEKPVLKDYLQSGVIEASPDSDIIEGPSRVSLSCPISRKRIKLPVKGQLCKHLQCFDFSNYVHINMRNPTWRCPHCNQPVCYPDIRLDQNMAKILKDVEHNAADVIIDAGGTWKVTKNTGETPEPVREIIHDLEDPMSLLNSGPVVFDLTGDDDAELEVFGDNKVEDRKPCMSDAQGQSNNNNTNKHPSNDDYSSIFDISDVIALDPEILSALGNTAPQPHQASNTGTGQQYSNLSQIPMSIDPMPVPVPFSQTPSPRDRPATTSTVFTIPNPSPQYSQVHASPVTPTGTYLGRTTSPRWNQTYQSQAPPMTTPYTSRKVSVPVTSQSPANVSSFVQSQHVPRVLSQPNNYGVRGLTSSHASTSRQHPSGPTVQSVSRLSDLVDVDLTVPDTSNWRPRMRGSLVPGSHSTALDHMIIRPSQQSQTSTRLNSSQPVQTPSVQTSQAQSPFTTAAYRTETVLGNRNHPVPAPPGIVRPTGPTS

[2] = molecular target: T2, AIPP3-FLAG (Arabidopsis thaliana) (UniProt Q8RXT5)
T2 sequence: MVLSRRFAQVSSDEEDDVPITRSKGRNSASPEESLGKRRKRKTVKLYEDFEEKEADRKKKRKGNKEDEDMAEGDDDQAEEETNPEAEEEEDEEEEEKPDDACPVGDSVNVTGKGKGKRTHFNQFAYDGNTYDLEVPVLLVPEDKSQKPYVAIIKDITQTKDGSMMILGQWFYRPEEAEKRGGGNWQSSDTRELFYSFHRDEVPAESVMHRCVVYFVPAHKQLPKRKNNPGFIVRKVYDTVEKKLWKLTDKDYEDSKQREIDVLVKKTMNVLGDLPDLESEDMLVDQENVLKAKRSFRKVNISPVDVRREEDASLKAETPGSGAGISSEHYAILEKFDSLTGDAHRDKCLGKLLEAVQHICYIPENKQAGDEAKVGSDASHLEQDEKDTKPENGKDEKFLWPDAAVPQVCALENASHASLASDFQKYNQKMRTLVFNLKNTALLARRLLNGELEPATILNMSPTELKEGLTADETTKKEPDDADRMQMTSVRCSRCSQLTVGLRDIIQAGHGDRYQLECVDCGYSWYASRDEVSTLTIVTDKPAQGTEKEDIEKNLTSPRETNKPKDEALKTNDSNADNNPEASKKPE

[3] = molecular target: T3, PHD1-FLAG (Arabidopsis thaliana) (UniProt B3H578)
T3 sequence: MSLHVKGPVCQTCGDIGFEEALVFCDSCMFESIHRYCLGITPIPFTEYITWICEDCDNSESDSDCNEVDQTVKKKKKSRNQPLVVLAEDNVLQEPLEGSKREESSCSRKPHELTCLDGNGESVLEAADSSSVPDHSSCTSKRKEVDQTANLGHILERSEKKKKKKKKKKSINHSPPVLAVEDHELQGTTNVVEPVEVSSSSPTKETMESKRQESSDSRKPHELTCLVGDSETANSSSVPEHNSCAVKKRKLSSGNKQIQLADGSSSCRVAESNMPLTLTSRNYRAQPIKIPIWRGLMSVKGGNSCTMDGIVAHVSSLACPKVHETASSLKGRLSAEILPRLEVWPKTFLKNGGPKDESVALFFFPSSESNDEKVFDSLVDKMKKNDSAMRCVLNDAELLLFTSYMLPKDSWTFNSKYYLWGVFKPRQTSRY

[4] = molecular target: MOM2-FLAG (Arabidopsis thaliana)

binding [1]: binds
binding [2]: binds
Molecule: MOM1 (MORPHEUS' MOLECULE1), endogenous (from UniProt Q9M658 1-2001)

binding [1]: binds
binding [3]: binds
binding [2]: binds
Molecule: MOM2, endogenous

binding [1]: no binding
binding [3]: no binding
binding [2]: binds
binding [4]: no binding
B1: PHD3, endogenous (protein, UniProt F4IYH6 1-994)
chain: MADRRVGNRPMGRRGRLEIQSGTCNVCSAPCSSCMHHNAEFSGSKSDESSDENSHGVLASQCSFNGDNLLRSSGVNAPGSSHNTSSEASHLVNSNHDTSSENAESKEIIRSSDISHGPLLDRPHKDQDSMKVDSCNDHQARSTLGQGKVKEKSGAKNNEEKKNTLTGSSKHSGPRVGKSGENVLLNKADESNTSAMSDSESENDPEMLELDVKVCDTCGDAGREDLLAICSRCSDGAEHTYCMRVMLKKVPKGYWLCEECKFAEKAEKHKLETKRKRESEVNVNTQISSKRHIDKFEAVPDSKRLAVGAQIGSPKRSVLPRMSTLSRETSFKGLEKPTRKLAHYSSFNSHSSDDTESTRSTDSQLQSPKGSFLKSNSFNSLSSRSKVRPVDDDMLPRQKTGNENSSLEVKEGFSKNVGKSMSSRCIDVGSSNCNDSKVKGSKQLKDWSTEANPSASISRGNSSIPYAKSPRDLKDLQSDGKQGSLSKQARHLSRNRLEDIVASVGDSSKNEKCSSSEQISSEAKCKDELAQVDGVPRSREFREAGEKTKDAVGNHQKRNIGEDNNKGNRLRAAVDAALRKKPSFSKNRGLEQSDLPPVSNVDSGCNKALKCLSSKVPVIRDWPVGFQGLPGGHPNLRTDKQTNTVNEKQFTLAGTDATTASQSVEPEVNDPSVQSVMRDLPVAAPNVLSTTSAIPKPEYIWQGDLEVQKSRNLSAMHSGIQAYLSTLASPKVVEVVKQFPEKVTLNEVPRLSSWPAQFQDTGAKEQHVALFFFAKDIESYEKNYKPLVDNMIQKDLALKGNLEGVELLIFASNQLPQDCQRWNMLFFLWGVFRGKKESCSNPPKNTPLPASCVSPNRDTFRHENPSNKKSLTDRTLSRMQSCMKEEDAKEGKACSGTEKENAFSVSYGEGEVDVETEEGEIGVSPQLKYEKTAGPGTVKSADMNQRVNVDDLNKEGLCEGPANKKLKTVTGVETGCSIVRRDTSVHKFASRKFV

binding [1]: no binding
binding [3]: no binding
binding [2]: binds
binding [4]: no binding
B2: PHD2, endogenous (protein, UniProt F4KE59 1-1311)
chain: MADRRVGKRQMGQRGFSKVESGTCNVCSAPCSSCMHRNVGFTGSKLDESSDENCHGVVGSQCSVNEDDLLPSSMVNAHKSLNNTASEASNLVNSSHDALSENAESKETIRCSGISDDSGAAAMTSKPSLSGSRMKHKVSASANMLDQSSNCIEDQEDGILSADRAKQLKSGCSNNEIGNKDLADGSALNSDPIPGGSRKDEVKLESLQNPSSNHDDRVSSEKGNFKEKSRPGGNKERQEPSVEGSTRSGENRKDGKSSKSSSSNSSAVSESESDDSEMVEHDVKVCDICGDAGREDLLAICSGCSDGAEHTYCMREMLDEVPEGDWLCEECAEEAEKQKQEAKRKRETEVTFNTYSSGKRHADKIEAAPDAKRQVVEASTGSPKKSILPRVGALSRETSFKGLDRLRGKLNHQTSFSDDTESARSAGSQLQPPKGAFLKSSSFNCSSSKPKVQLMDDAIHPRQKTGKEDTALDLKVGGFRNVGKSMPSRTTDAGNSGGSDSQAKMLGSKVYHSQEGKSLKQVKDRNREANASASSIDQKLKSRGNSSVSHANNNRDLKGLQSDGKRGNLTKQVSNLSRNRLENSVVSGGDISTNEKCSASEQSSSQADCKDELPSTSCTGEGMPNHGTVALQDGLPRSRVPREVGKKSKEAFSKRQRSSLLAGAKGLPSSQKGGQTAESSDTSGVSDSDLSTTKNVKEDLNKGNRLRAAVDAALRKKPSFGKNRVLEQSDASLVANVDSSSEKTLRNQLPSKMHKNHVSHEGLQGGHPILWPTSDPYKQTIVTNEKQLIFPGADTIPSRLVEPEVSFPAVKPVMRDLPLVPSPVMLRSSAIPDHEFIWQGDLEVRKIINQSAMHSGIQAHLSTLASPRVAEVVNKFPETFSLNEVPRKSTWPTQFEKLGTKEAHIALFFFAKDTESYERNYKPLVDNMIKNDLALKGNLDNVDLLIFASNQLPSNCQRWNMLYFLWGVFQGRKETNPQKNTSLPTSNVLPRDRDPKELCQTSSPSKHLEKGSSLRESSSNGIETRNGTDARSHENPNNRESSIERSPSKKEDIALKVEEAGVNHIPPQVTGSNSGDSLVRKVQKVEEQELGGRKDLPLTVMGSGIQSHGQDNPLEKDLNSSQASHRKRPLWELSNPANENSSAINQKVELNNDGLCEGSPNKKLKTENGSSSLCRDTSGHDSGIMKKSPKVVFPLDLNDDSEMVDNLSPLGNDENNNNRRLISGTVPNLELALGAEETTEATMGLLPFLSRSSNSGEQSNNSMNKEKQKADEEEEDDAEVAASLSLSLSFPGTEERKNVNTPLFLFRDLPR

binding [1]: no binding
binding [3]: no binding
binding [2]: binds
binding [4]: no binding
B3: CPL2, endogenous (protein, UniProt Q5YDB5 1-770)
chain: MNRLGHKSVVYHGDLRLGELDVNHVSSSHEFRFPNDEIRIHHLSPAGERCPPLAILQTIASFAVRCKLESSAPVKSQELMHLHAVCFHELKTAVVMLGDEEIHLVAMPSKEKKFPCFWCFSVPSGLYDSCLRMLNTRCLSIVFDLDETLIVANTMKSFEDRIEALKSWISREMDPVRINGMSAELKRYMDDRMLLKQYIDNDYAFDNGVLLKAQPEEVRPTSDGQEKVCRPVIRLPEKNTVLTRIKPEIRDTSVLVKLRPAWEELRSYLTAKTRKRFEVYVCTMAERDYALEMWRLLDPEAHLISLKELRDRIVCVKPDAKKSLLSVFNGGICHPKMAMVIDDRMKVWEDKDQPRVHVVSAYLPYYAPQAETALVVPHLCVARNVACNVRGYFFKEFDESLMSSISLVYYEDDVENLPPSPDVSNYVVIEDPGFASNGNINAPPINEGMCGGEVERRLNQAAAADHSTLPATSNAEQKPETPKPQIAVIPNNASTATAAALLPSHKPSLLGAPRRDGFTFSDGGRPLMMRPGVDIRNQNFNQPPILAKIPMQPPSSSMHSPGGWLVDDENRPSFPGRPSGLYPSQFPHGTPGSAPVGPFAHPSHLRSEEVAMDDDLKRQNPSRQTTEGGISQNHLVSNGREHHTDGGKSNGGQSHLFVSALQEIGRRCGSKVEFRTVISTNKELQFSVEVLFTGEKIGIGMAKTKKDAHQQAAENALRSLAEKYVAHVAPLARETEKGPENDNGFLWESSEDVSNKGLEEEAPKENISEL
